These are yes or no findings as the source states them, for the method shown. For some of these results: In cells and extracts the contact can be indirect. Some results given as binding are weak or reduced against the parent protein; the word gives no strength.
Key:
[1] = biological target: CLIMP-63 C100A, exogenously expressed with an N-terminal HA or RFP tag (UniProt Q07065); assay: co-IP
[2] = biological target: CLIMP-63 WT, exogenously expressed with an N-terminal HA or RFP tag (UniProt Q07065); assay: co-IP
[3] = biological target: cytoskeleton-linking membrane protein 63 (CLIMP-63), endogenous (human (endogenous in HeLa)) (UniProt Q07065); assay: native gel or EMSA
[4] = biological target: cytoskeleton-linking membrane protein 63 (CLIMP-63), endogenous (human (endogenous in HeLa)) (UniProt Q07065); assay: proximity ligation
[5] = biological target: cytoskeleton-linking membrane protein 63 (CLIMP-63), endogenous (human (endogenous in HeLa)) (UniProt Q07065); assay: co-IP

Protein sequences, listed by entry. Tags and fused reporters are not part of them. Lines headed by an entry give the natural chain unless they say otherwise; changes in a name come on top.
UniProt Q07065, whole entry: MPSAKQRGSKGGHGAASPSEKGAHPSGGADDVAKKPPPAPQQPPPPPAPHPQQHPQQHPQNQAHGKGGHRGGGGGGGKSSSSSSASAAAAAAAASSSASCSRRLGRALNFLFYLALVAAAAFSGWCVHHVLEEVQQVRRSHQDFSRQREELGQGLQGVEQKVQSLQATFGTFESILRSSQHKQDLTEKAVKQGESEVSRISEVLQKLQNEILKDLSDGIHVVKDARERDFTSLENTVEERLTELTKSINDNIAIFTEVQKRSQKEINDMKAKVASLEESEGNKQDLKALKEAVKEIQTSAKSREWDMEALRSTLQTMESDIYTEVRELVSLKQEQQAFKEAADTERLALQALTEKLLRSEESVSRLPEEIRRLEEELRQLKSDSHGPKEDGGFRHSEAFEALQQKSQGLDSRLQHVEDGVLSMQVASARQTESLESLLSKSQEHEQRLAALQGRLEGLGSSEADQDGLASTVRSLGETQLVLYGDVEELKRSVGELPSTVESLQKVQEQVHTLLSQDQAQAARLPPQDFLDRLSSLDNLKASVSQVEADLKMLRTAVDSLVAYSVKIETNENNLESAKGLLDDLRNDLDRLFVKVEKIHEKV
UniProt Q9UIJ5, whole entry: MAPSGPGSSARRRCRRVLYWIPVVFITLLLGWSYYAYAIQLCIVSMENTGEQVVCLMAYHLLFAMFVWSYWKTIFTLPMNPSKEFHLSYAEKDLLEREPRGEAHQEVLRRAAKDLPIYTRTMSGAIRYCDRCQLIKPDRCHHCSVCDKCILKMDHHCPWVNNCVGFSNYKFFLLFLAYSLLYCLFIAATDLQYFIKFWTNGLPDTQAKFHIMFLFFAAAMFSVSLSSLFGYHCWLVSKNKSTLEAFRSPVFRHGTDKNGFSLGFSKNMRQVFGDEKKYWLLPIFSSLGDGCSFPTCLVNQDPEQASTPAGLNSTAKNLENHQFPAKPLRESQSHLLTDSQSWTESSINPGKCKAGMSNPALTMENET

Row | binding [4] | binding [5] | Molecule | other results
1 | – | – | CLIMP-63 C100A, exogenously expressed with an N-terminal HA or RFP tag (from UniProt Q07065 1-602) | binding [1]: binds
2 | – | – | CLIMP-63 WT, exogenously expressed with an N-terminal HA or RFP tag (from UniProt Q07065 1-602) | binding [2]: binds
3 | – | – | cytoskeleton-linking membrane protein 63 (CLIMP-63), endogenous (from UniProt Q07065 1-602) | binding [3]: binds
4 | binds | binds | palmitoyltransferase ZDHHC2 (from UniProt Q9UIJ5 1-367) (enzyme) | –
5 | binds | binds | palmitoylacyltransferase ZDHHC6 (enzyme, UniProt Q9H6R6 1-413) MGTFCSVIKFENLQELKRLCHWGPIIALGVIAICSTMAMIDSVLWYWPLHTTGGSVNFIMLINWTVMILYNYFNAMFVGPGFVPLGWKPEISQDTMYLQYCKVCQAYKAPRSHHCRKCNRCVMKMDHHCPWINNCCGYQNHASFTLFLLLAPLGCIHAAFIFVMTMYTQLYHRLSFGWNTVKIDMSAARRDPLPIVPFGLAAFATTLFALGLALGTTIAVGMLFFIQMKIILRNKTSIESWIEEKAKDRIQYYQLDEVFVFPYDMGSRWRNFKQVFTWSGVPEGDGLEWPVREGCHQYSLTIEQLKQKADKRVRSVRYKVIEDYSGACCPLNKGIKTFFTSPCTEEPRIQLQKGEFILATRGLRYWLYGDKILDDSFIEGVSRIRGWFPRKCVEKCPCDAETDQAPEGEKKNR | –

Source: paper doi:10.1101/431106
